Measurements as given in patent US20140263071A1, “METHOD FOR COLLECTING METALS” (CHEMEC OY AB, priority 2011, published 2014).

Tests used:
[1] = Optimal expulsion pH range with minimum expulsion percent, single elements (Example 7)
Experimental: A water solution (110 ml) containing known amount of single cationic element or elements, typically 0.5-200 ppm, was prepared from Merch Titrisol® standard solution. After adjusting pH by using acid (e.g. HCl or HNO3) or base (e.g. NaOH) to desired initial value, sample A (10 ml) was taken followed by adding 100 mg of selected solid complexation agent. The mixture was stirred at room temperature for 24 h and sample B (10 ml) was taken. Samples A and B were filtrated separately trough 0.2 μm syringe filter and the concentration of the studied element or elements in both solution was determined by using atomic absorption spectrophotometer. The expulsion percent was determined from the concentration differences between the sample solutions A and B.
Using the above mentioned general procedure optimal expulsion pH ranges for each metal with complexation agent 1a was determined. For each element the expulsion percent was determined in 5-14 different pH value. The obtained results are shown in table below with minimum expulsion percent inside the optimal pH range.

[2] = Recycling and regeneration of solid bisphosphonate material (Example 27); conditions: 20 cycles; start 700 mg
Experimental: Compound 1a (700 mg) was weighed on sintered disc (porosity G-4) and aqueous CuCl2x2 H2O (20 ml) solution containing ca. 47 700 ppm of copper was passed slowly through the powder under vacuum. […] After the sintered disc was dry, aqueous HCl (25 ml, 2M) was passed slowly through the sintered disc. During this regeneration process solid bisphoshonate material on sintered disc turned from blue to white and filtered HCl solution was pale blue. The same procedure using the original 1a powder on sintered disc and a fresh CuCl2x2 H2O (20 ml) solution was repeated 20 times. The copper concentrations measured by AAS of the filtered HCl solution was 2294 ppm, 859 ppm and 713 ppm after first, 10th and 20th regeneration cycle, respectively. The amount of 1a after the last regeneration step was 630 mg (90% of the original amount).

In the case of NCCCCCCCCCCC(O)(P(=O)(O)O)P(=O)(O)O [Compound 1a, 11-Amino-1-hydroxyundecane-1,1-diyldiphosphonic acid], the pH range ([1]; Ag^+) is reported as 1.5-12, the pH range ([1]; Al^3+) is reported as 1-2 and the pH range ([1]; Au^3+) is reported as 0-2. The pH range ([1]; Ba^2+) was 3-12, the pH range ([1]; Bi^3+) was 0.5-4 and the pH range ([1]; Ca^2+) was 4-12. The pH range ([1]; Cd^2+) was 3-11, the pH range ([1]; Co^2+) was 4-11 and the pH range ([1]; Cr^3+) was 2.5-12. The pH range ([1]; Cr^6+, As^3/5+, Ta^5+) was 0-12, the pH range ([1]; Cu^2+) was 3-11 and the pH range ([1]; Cu^+) was 3-11. The pH range ([1]; Eu^3+) was 2-8, the pH range ([1]; Fe^2+) was 3-10 and the pH range ([1]; Fe^3+) was 1-11. The pH range ([1]; Ga^3+, lower range) was 0.5-1, the pH range ([1]; Ga^3+, upper range) was 6-11 and the pH range ([1]; Hg^2+) was 2-11. For the same compound, the pH range ([1]; Hg^+) was 2-11, the pH range ([1]; Ir^3+) was 0.0-0.5 and the pH range ([1]; La^3+) was 0-3.8. The pH range ([1]; Li^+, Na^+, K^+) was 0-12, the pH range ([1]; Mg^2+) was 4-12 and the pH range ([1]; Mn^2+) was 4-10. The pH range ([1]; Mo^6+) was 4-10, the pH range ([1]; Nb^5+) was 0-12 and the pH range ([1]; Nd^3+) was 2-8. The pH range ([1]; Ni^2+) was 4-11, the pH range ([1]; Os^4+) was 5-7 and the pH range ([1]; Pb^2+) was 2-9. For the same compound, the pH range ([1]; Pd^2+) was 7-12, the pH range ([1]; Pt^2+) was 0-1 and the pH range ([1]; Rh^3+) was 2-10. For the same compound, the pH range ([1]; Ru^3+) was 2-11, the pH range ([1]; Sb^3+) was 0.5-11 and the pH range ([1]; Sc^3+) was 0-12. For the same compound, the pH range ([1]; Si^4+, Se^4/6+) was 0-12, the pH range ([1]; Sn^2+) was 8-10 and the pH range ([1]; Sn^4+) was 7-11. The pH range ([1]; Sr^2+) was 4-12, the pH range ([1]; Ti^4+) was 10-12 and the pH range ([1]; V^4+) was 0-0.5. For the same compound, the pH range ([1]; W^6+) was 0.5-3, the pH range ([1]; Zn^2+) was 4-11 and the “amount of 1a after the last regeneration step” value [2] was 630 mg. The “amount of 1a after the last regeneration step, of the original amount” value [2] was 90%.
